The test in a line: qHTS Assay to Find Inhibitors of Chronic Active B-Cell Receptor Signaling. The note with it: ABC-DLBCL IkBa-CBG/CBR reporter, luminescence ratio (green luciferase fused to IkBa over red control in TMD8 lymphoma cells), 4 h. The procedure, abridged: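 TMD8 ABC-DLBCL cells carrying doxycycline-inducible green luciferase fused to IkappaBalpha plus unfused red luciferase were exposed to compounds (up to 46 uM) for 4 hrs at 37C. Activity came from the overlap-corrected green/red luminescence ratio.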

Setting [1] is: measured here: CBR red luminescence, cell number.
The mark [2] stands for this setting: measured here: IkBa-CBG green luminescence.

Some of the results follow. Shown are side measurements of this screen, not its main read-out; they come without a call. The list favours compounds with an active or inconclusive main result. Potencies come from curve fits of mixed quality, noted in brackets.

From PubChem BioAssay AID493014 (National Center for Advancing Translational Sciences (NCATS), 2011) come the findings set out here.

Regarding `C[C@@H]1C=C[C@](Cc2ccccc2)(C(=O)NCCc2c[nH]c3ccccc23)N1C(=O)c1ccccc1`, under setting [1], the AC50 was 11.6 µM [falling, partial curve].
As for `CCCCNC(=O)COC(=O)c1ccc(Cl)c(S(N)(=O)=O)c1`, the AC50 under setting [1] was 0.206 µM [falling, full curve, poor fit].
Same read-out and setting: under `CCCSc1nsc(NC(=O)CCC)n1` stands 35.5 µM [falling, single point]; under `COc1ccc(-c2noc(-c3ccccc3-c3ccccc3)n2)cc1`, 12.6 µM [rising, partial curve]; under `COc1ccc(NCc2n[nH]nc2-c2ccccc2)cc1Cl`, 9.2 µM [rising, partial curve].
With `COc1ccc(CC(=O)NNC(=O)c2ccc(SCc3cc(F)ccc3F)c([N+](=O)[O-])c2)cc1`, the half-maximal activity concentration (AC50) under setting [1] is 17.8 µM [rising, single point].
Still for that read-out and setting: the result for `Nc1nc(N)c(C=Nc2ccc(Br)cc2)c(Nc2ccc(Br)cc2)n1` reads 8.91 µM [rising, partial curve]; that for `CC1CCN(c2nc3ccc(C(=O)N4CCN(Cc5ccc6c(c5)OCO6)CC4)cc3s2)CC1`, 7.31 µM [falling, partial curve].
As for `COc1ccccc1N(CC(=O)NC1CCCCC1)C(=O)CCC(=O)Nc1ccccn1`, the AC50 under setting [1] was 8.2 µM [falling, partial curve, poor fit].
On the same count and under the same terms, under `CSc1ccccc1NC(=O)CN(C)C(=O)Cc1c[nH]c2ccccc12` stands 16.4 µM [falling, single point]; under `O=C(c1ccc2c3n(nc2c1)-c1ccc(Cl)cc1CO3)N1CCCCC1`, 0.708 µM [falling, full curve, poor fit]; under `CCC(C)(C(=O)NC1CCCC1)N(Cc1cccs1)C(=O)Cc1cccs1` (configuration not stated), 0.82 µM [rising, full curve, poor fit].
With `Cc1ccc(NC(=S)/C(=C(\[O-])c2ccc(Cl)s2)[n+]2cccc(CO)c2)cc1C`, the AC50 under setting [1] was 4.47 µM [falling, full curve, poor fit].
`O=C(CSc1nnc2[nH]c(=O)cc(-c3ccccc3)n12)Nc1ccc(F)cc1F`: the AC50 under setting [1] is 2.82 µM [falling, full curve].
On to `COC(=O)c1cn(NC(=O)/C=C/c2cccc(OC)c2OC)c(=O)c2ccccc12`, for which the AC50 under setting [1] was 18.4 µM [rising, partial curve].
Regarding `COc1cc(C(=O)N/N=C(\Cc2ncc[nH]2)c2ccccc2)cc(OC)c1OC`, the AC50 by setting is: under setting [1], 25.1 µM [rising, partial curve]; under setting [2], 22.4 µM [falling, partial curve].
For the molecule `Cc1ccnc(NC(=O)c2sc3ccccc3c2Cl)c1`, under setting [1], the AC50 is 14.6 µM [falling, single point].
Turning to `Cc1ccc(C2=CC(c3c(F)cccc3Cl)n3ncnc3N2)cc1C` (configuration not stated), the AC50 under setting [1] was 35.5 µM [falling, single point].
For `NNc1ccc(Cl)c(C(=O)O)c1`, the half-maximal activity concentration (AC50) under setting [1] is 22.4 µM [falling, partial curve, poor fit].
The same measure, in the same setting: under `COc1ccc(/C(C)=C2\SC(=S)N(CCC(=O)O)C2=O)cc1` stands 1.64 µM [falling, full curve, poor fit]; under `COC(=O)c1c(NC(=O)c2cccs2)sc2c1CCC(C)C2` (configuration not stated), 1.78 µM [rising, full curve, poor fit]; under `N#CC1c2ccccc2C=CN1C(=O)c1ccccc1` (configuration not stated), 3.98 µM [rising, full curve, poor fit].
Still for that read-out and setting: under `CNC(=O)c1c[nH]c2ccc(S(=O)(=O)Nc3cccc(Cl)c3C)cc2c1=O` stands 20.6 µM [falling, partial curve, poor fit]; under `NC(=O)c1nn(-c2ccccc2)nc1NC(=O)CN1CCOCC1`, 5.62 µM [falling, single point]; under `O=C(Nc1ccc(F)c(S(=O)(=O)N2CCOCC2)c1)C1CCCCC1`, 11.6 µM [rising, partial curve, poor fit].
For `O=C(NNC(=O)[C@@H]1CCCC[C@@H]1C(=O)O)Nc1ccccc1`, under setting [1], the AC50 was 3.66 µM [rising, partial curve, poor fit].
On the same count and under the same terms, under `O=C1Nc2ccc(Br)cc2/C1=C/c1ccc(C(=O)O)cc1` stands 12.6 µM [falling, partial curve, poor fit].
With `CC(Sc1ccccc1)C(=O)Nc1ccccc1C(=O)N1CCOCC1` (configuration not stated), the AC50 under setting [1] was 5.17 µM [rising, partial curve, poor fit].
On the same count and under the same terms, under `O=S(=O)(c1cccc(-c2csc(-c3cccnc3)n2)c1)N1CCOCC1` stands 0.708 µM [rising, full curve]; under `O=C(Nc1nccs1)c1ccccc1[N+](=O)[O-]`, 7.31 µM [falling, partial curve, poor fit].
On the same count and under the same terms, under `COC(=O)c1[nH]c2ccc(C)cc2c1NC(=O)CN1CCc2cc(OC)c(OC)cc2C1` stands 17.8 µM [falling, single point].
On to `O=C(c1ccc(CS(=O)Cc2ccccc2Cl)o1)N1CCN(c2cccc(Cl)c2)CC1` (configuration not stated), for which the AC50 under setting [1] was 25.1 µM [falling, single point].
As to `CC1=C(C#N)C(c2cccnc2)C2=C(CCCC2=O)N1` (configuration not stated), under setting [1], the AC50 was 20.6 µM [rising, single point].
Same read-out and setting: the result for `COc1ccc(-c2[nH]ncc2C=O)cc1OC` reads 12.6 µM [falling, partial curve, poor fit]; that for `COc1cccc(N(C(=O)c2cccs2)c2nc3ccccc3s2)c1`, 14.6 µM [rising, single point]; that for `O=C(O)C/C(=C\c1ccc2c(c1)OCO2)c1nc2ccccc2s1`, 10 µM [falling, partial curve].
On to `COc1ccc(NC(=O)CSc2ccc(-c3ccccn3)nn2)cc1OC`, for which the AC50 under setting [1] is 16.4 µM [falling, partial curve, poor fit].
On the same count and under the same terms, the result for `O=C(O)c1ccc(N2C(=O)c3[nH]nc(-c4ccccc4)c3C2c2ccccc2)cc1` (configuration not stated) reads 17.8 µM [falling, partial curve, poor fit]; that for `O=C(c1cc(-c2cccc(O)c2)on1)N1CCCCC1`, 18.4 µM [falling, single point].
On to `COc1cc(NC(=O)C(C)Oc2ccccc2)c(C(=O)O)cc1OC` (configuration not stated), for which, under setting [1], the AC50 is 20.6 µM [falling, single point].
On the same count and under the same terms, under `Oc1ccccc1CNc1ccc(Br)cn1` stands 1.12 µM [rising, full curve, poor fit].
Same read-out and setting: under `O=C(COCc1cc(-c2ccco2)on1)NC1CCCCC1` stands 6.31 µM [rising, partial curve, poor fit]; under `CCOC(=O)c1[nH]c2cc(OC)c(OC)cc2c1NC(=O)CN1CCN(C)CC1`, 11.6 µM [rising, partial curve, poor fit].
Turning to `Cn1c(N2CCC(C(N)=O)CC2)nc2c1c(=O)n(Cc1ccc(Cl)cc1)c(=O)n2C`, under setting [1], the AC50 is 2.59 µM [falling, full curve, poor fit].
Regarding `NC(=O)C1CCN(C(=O)Cn2cccc2C(=O)c2ccccc2)CC1`, the AC50 under setting [1] was 1.16 µM [rising, single point].
On the same count and under the same terms, the result for `CC(C)(C)c1cc(CN2CCCC(O)C2)c(O)c(C(C)(C)C)c1` (configuration not stated) reads 29.1 µM [rising, single point].
Turning to `COc1cc(-c2c(-c3cccc(C)c3)oc3ccccc23)cc(OC)c1OC`, the AC50 was 4.47 µM [falling, full curve, poor fit] under setting [1] and 5.62 µM [rising, partial curve, poor fit] under setting [2].
Turning to `CCCc1cc(C(=O)N2CCN(c3ccccc3C)CC2)cs1`, the AC50 under setting [1] was 0.13 µM [rising, full curve, poor fit].
The same measure, in the same setting: under `COc1ccccc1N1CCN(C(=O)COc2cccc3ccccc23)CC1` stands 35.5 µM [falling, single point].
Take `O=C(Nc1ccccc1)c1ccc(-c2ccccc2)s1`: under setting [1], the AC50 was 3.55 µM [falling, full curve].
`CSCCC(NS(=O)(=O)c1ccccc1F)C(=O)NCC(C)(C)N1CCOCC1` (configuration not stated): the AC50 under setting [1] is 29.1 µM [rising, single point].
With `O=C(NCc1nnnn1-c1ccc(F)cc1)c1ccc([N+](=O)[O-])o1`, the AC50 under setting [1] was 4.61 µM [falling, full curve].
On the same count and under the same terms, under `c1ccc(Cn2ccc(-c3cnc(-c4ccccc4)s3)n2)cc1` stands 0.326 µM [rising, partial curve, poor fit]; under `CC(=O)Nc1ccc(NC(=S)Nc2ccc(Br)cc2)cc1`, 15.8 µM [rising, partial curve, poor fit].
Still for that read-out and setting: under `CCOC(=O)N1CCN(C(=O)CC(C(=O)N2CCc3ccccc32)n2ccnc2)CC1` (configuration not stated) stands 12.6 µM [falling, single point].
In the case of `CCOC(=O)c1c(C)[nH]c(C)c1C(=O)CSc1ncccn1`, the AC50 under setting [1] was 6.51 µM [falling, single point] and the AC50 under setting [2] was 6.51 µM [rising, partial curve, poor fit].
For `COc1ccc(NC(=O)N2CCCC(CNS(=O)(=O)c3cccs3)C2)c(C)c1` (configuration not stated), the AC50 under setting [1] is 35.5 µM [rising, single point].
Take `CCn1nc(C(=O)NCC(c2cccs2)N2CCOCC2)c2ccccc2c1=O` (configuration not stated): the AC50 under setting [1] was 35.5 µM [falling, single point].
Still for that read-out and setting: the result for `O=C(CSC1=NCCS1)Nc1ccc(F)cc1` reads 35.5 µM [falling, single point].
As to `CSc1nc(N(C)NC(=O)c2ccc(F)cc2)c2ccccc2n1`, the half-maximal activity concentration (AC50) is 23.1 µM [rising, single point] under setting [1] and 18.4 µM [falling, single point] under setting [2].
Turning to `CC(C)c1cc(C(=O)OCC(=O)NC(=O)NCc2ccco2)c(O)c(C(C)C)c1`, the AC50 under setting [1] is 15.8 µM [falling, single point].
In the case of `N#Cc1c(Nc2ccccc2)sc(C(=O)C2CC2)c1N`, under setting [1], the AC50 was 8.2 µM [rising, partial curve].
On the same count and under the same terms, the result for `C/C(CC(=O)NCc1ccccc1Cl)=N/NC(=O)c1ccccn1` reads 12.6 µM [falling, partial curve].

For orientation: AC50 means the concentration at which the activity in the assay is half-maximal.
